# Measurements taken from PubChem BioAssay AID1259354 (Paczesny and Yang Labs, IUPUI and University of Michigan, 2018).
# Amino acid sequences for entries named in this document (tags omitted). A change or cut given only in a name is not applied to a line headed by its entry.
# UniProt Q01638: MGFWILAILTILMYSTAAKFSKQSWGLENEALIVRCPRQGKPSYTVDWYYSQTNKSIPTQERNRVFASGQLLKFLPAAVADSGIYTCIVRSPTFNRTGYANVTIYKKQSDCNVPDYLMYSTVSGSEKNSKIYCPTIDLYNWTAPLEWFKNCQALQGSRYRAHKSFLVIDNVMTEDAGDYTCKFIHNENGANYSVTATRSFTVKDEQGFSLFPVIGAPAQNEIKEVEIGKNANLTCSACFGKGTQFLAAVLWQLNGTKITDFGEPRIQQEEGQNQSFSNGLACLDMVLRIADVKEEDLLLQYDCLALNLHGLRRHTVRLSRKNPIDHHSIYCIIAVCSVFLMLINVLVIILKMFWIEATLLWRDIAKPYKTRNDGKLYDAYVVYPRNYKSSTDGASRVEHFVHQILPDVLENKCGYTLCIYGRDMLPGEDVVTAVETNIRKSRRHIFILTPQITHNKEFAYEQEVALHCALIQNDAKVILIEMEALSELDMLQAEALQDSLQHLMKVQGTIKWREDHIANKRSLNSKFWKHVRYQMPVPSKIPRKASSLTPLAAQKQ
# Screen size: about 78,000 compounds; about 1,800 (2.3%) were called active. The inconclusive results got no clear call from the source; some entries with a clear call stand among them for comparison. Rule as the data show it: active = inhibition above about 30%; inconclusive = mostly about 10% to 28%; inactive = weaker than that.
# Target: Interleukin-1 receptor-like 1 (Homo sapiens) (UniProt Q01638)
# Experiment: blocks human ST2 binding to IL-33, primary screen, biochemical, AlphaLISA (AID 1259354)
# Settings: AlphaLISA ST2-Fc/biotin-IL-33 interaction, 1 h; at 17 µM, stronger effect = higher value
row,SMILES,inhibition
1,CC1=NN(C(=O)c2ccc([N+](=O)[O-])cc2)C(O)(c2ccncc2)C1 (configuration not stated),inconclusive: 13%
2,COc1ccc(OC)c(NC(=O)c2cc3ccccn3n2)c1,inconclusive: 18%
3,CN1CCN(c2nc3c(c(=O)n(C)c(=O)n3C)n2Cc2ccc(Cl)c(Cl)c2)CC1,inactive
4,COc1ccc2c(c1)CCc1c(C(=O)Nc3ccc(OC)c(OC)c3)noc1-2,inconclusive: 11%
5,NNC(=Nc1ccccc1Cl)c1nc2ccccc2s1,inconclusive: 29%
6,Cc1nnc(-c2ccccc2-c2ccccc2CO)s1,inconclusive: 15%
7,O=[N+]([O-])c1cccc(C2SCCN2S(=O)(=O)c2cccc(C(F)(F)F)c2)c1 (configuration not stated),inconclusive: 16%
8,O=C(Nc1ccccn1)c1ccc([N+](=O)[O-])cc1,inconclusive: 17%
9,Cc1ccc(CN2C[C@@H]3C[C@@H](c4ccc(-n5cccn5)cc4C)N4CCC[C@@]34C2=O)o1,inactive
10,Cc1cc(C)cc(-n2ncc3c2CCCC3NC(=O)C#Cc2ccccc2)c1 (configuration not stated),inconclusive: 12%
11,O=C(NC1CCCC1)c1cnc2n(c1=O)CCS2,inconclusive: 15%
12,CC(Nc1nc(CCN)nc2ccccc12)c1cnn(-c2ccc(F)cc2)c1 (configuration not stated),inconclusive: 21%
13,NC(=O)C1CCN(c2cc(-c3noc([C@@H]4CCCN4)n3)ccn2)CC1,inconclusive: 13%
14,CN1C[C@@H](NC(=O)NC2CCCCC2)C[C@H]1c1nc(-c2ccccn2)no1,inconclusive: 18%
15,C=CCN(Cc1ccccn1)C1CCN(C(C)=O)CC1,inactive
16,Cc1noc(C)c1S(=O)(=O)N1CCC(C(=O)N2CCCCCC2)CC1,inactive
17,COc1ccc(-n2ncc3c(Nc4ccc(OC)c(Cl)c4)ncnc32)cc1,inconclusive: 13%
18,COc1ccccc1CCC(=O)NCc1cccnc1N(C)C,inconclusive: 13%
19,NC(=O)CSc1nc2c(c(=O)n1-c1ccc(Cl)cc1)SCC2,inactive
20,Cc1c(C(=O)NC2CCC(n3cnnc3)CC2)cnn1-c1ccccn1 (configuration not stated),inconclusive: 10%
21,COC(=O)NC(C)C(=O)NCc1cccnc1Oc1c(C)cccc1C (configuration not stated),inconclusive: 24%
22,C[C@H]1[C@@H]2[C@@H](O)C([C@H](C)C(=O)N3CCCCC3)CC[C@@]2(C)CC[C@@H]1NC(=O)c1ccccn1 (some centres not stated),inconclusive: 15%
23,COc1cccc(C2=N/C(=C\c3cn(C(C)=O)c4ccccc34)C(=O)O2)c1,inconclusive: 10%

row,SMILES,inhibition
1,COc1cc(OC)cc(C(=O)Nc2ccc(S(=O)(=O)Nc3nc(C)cc(C)n3)cc2)c1,inconclusive: 13%
2,Cc1cccc(C(=O)Nc2cccc(F)c2)c1,inactive
3,CCOc1ccc(NC(=O)c2c(O)c3ccccc3n(CC)c2=O)cc1,inconclusive: 13%
4,CC(C)c1ccc(S(=O)(=O)N=C2C=CC(=O)C=C2)cc1,inconclusive: 21%
5,CCOCCCNc1c(-c2ccccc2)nc2ccc(Br)cn12,inconclusive: 29%
6,COc1ccc(CC2CN(C(=O)c3cc(C)oc3C)CCO2)cc1 (configuration not stated),inactive
7,O=C(Nc1ccc(Cl)cc1[N+](=O)[O-])c1cnc2n(c1=O)CCS2,inactive
8,COc1ccccc1N1C(=O)C2C(C1=O)C1(C)C=CC2(C)O1 (configuration not stated),inconclusive: 15%
9,COc1ccc2cc(CN3CCN([C@H]4CCCC[C@@H]4O)CC3)c(=O)[nH]c2c1,inconclusive: 20%
10,CCCN(CCC)S(=O)(=O)c1ccc2c(c1)N(CC(=O)NC(C)C)C(=O)CS2,inconclusive: 10%
11,CCOC(=O)c1c(NC(=O)CSc2c[nH]c3ccccc23)sc2c1CCCCC2,inconclusive: 12%
12,CCOc1ccc(Br)cc1S(=O)(=O)N1CCN(c2nc(C)cc(N3CCCCC3)n2)CC1,inconclusive: 15%
13,Cc1nccn1-c1ccccc1CNC(=O)[C@@H](O)c1ccccc1,inconclusive: 11%
14,COc1cc(OC)c(OC)cc1C=Nc1c(C)n(C)n(-c2ccccc2)c1=O,inconclusive: 18%
15,Cc1cc(C=O)c(C)n1-c1ccncc1,inconclusive: 11%
16,Cc1nc2ncccn2c1C(=O)N1CCCC2(CC1)CN(C)C(=O)O2 (configuration not stated),inconclusive: 17%
17,O=C(c1ccc2oc(CCCc3ccccc3)nc2c1)N1CCCCC1c1cccnc1 (configuration not stated),inconclusive: 16%
18,O=[N+]([O-])c1cc(C=Nc2ccc(-c3nc4ncccc4o3)cc2)ccc1Cl,inactive
19,CC(=O)Nc1ccc(Nc2nc(C)cc(Nc3ccc(C)cc3)n2)cc1,inactive
20,Cc1ccc(C(=O)NC[C@H]2O[C@@H](CC(=O)NCCN3CCOCC3)[C@H](O)[C@@H]2O)cc1,inconclusive: 17%
21,OCc1ccccc1-c1ccc(O)c(-c2ccno2)c1,inconclusive: 12%
22,CCc1cc(-c2ccc(C(=O)N(C)C)cc2)nc(N2CCCC2)n1,inactive
23,CC(C)=CC(=O)N1CCc2c(nc(C)nc2N2CCCC2)C1,inactive

row,SMILES,inhibition
1,Fc1ccccc1-c1noc(-c2ccc(NC3CCSC3)nc2)n1 (configuration not stated),inconclusive: 20%
2,O=C(c1ccccc1OC1CCN(Cc2cccc(F)c2F)CC1)N1CCCC1,inactive
3,CC(=O)Nc1ccc(NC(=O)C2CC(=O)N(c3ccc(F)cc3)C2)cc1 (configuration not stated),inconclusive: 25%
4,COc1cccc(CCC(=O)N2CCCN(C)C3(CCN(C)CC3)C2)c1,inconclusive: 17%
5,O=C(CCc1ccccc1)N1N=C(C(F)(F)F)CC1(O)c1ccc(F)cc1 (configuration not stated),inactive
6,COC(=O)c1cccc(NC(=S)N[C@H]2CO[C@H]3[C@@H]2OC[C@@H]3Nc2nccc(-c3ccc(-c4ccccc4)cc3)n2)c1,inconclusive: 14%
7,CCOc1ccc(C2C(C(=O)OCc3ccccc3)=C(C)Nc3nnnn32)cc1 (configuration not stated),inactive
8,CC(C)NC(=O)N1CC[C@@H](CC(=O)O)[C@@H](CCN2CCC[C@H]2C(N)=O)C1,inconclusive: 16%
9,C=CCN1C(=O)/C(=c2/sc3nc4ccccc4n3c2=O)c2ccccc21,active: 31%
10,COc1ccc(C2=NN(CC(=O)NCCN3CCOCC3)C(=O)CC2)cc1,inconclusive: 12%
11,Clc1cccc(CN2CCN(c3nc4nonc4nc3NC3CC3)CC2)c1,inconclusive: 13%
12,COC(=O)c1ccc(C2C3=C(CCCC3=O)Nc3nc(SCc4ccccc4)nn32)cc1 (configuration not stated),inactive
13,O=S(=O)(c1ccc(Cl)c(Cl)c1Cl)N1CCN(c2ccc(F)cc2)CC1,inactive
14,Cc1ccc(NC(=O)/C=C2/SC(=O)N(CN3CCCCC3)C2=O)cc1,inconclusive: 29%
15,CC(=O)c1ccc(NC(=O)c2sc3nc(C)cc(C)c3c2N)cc1,inconclusive: 22%
16,COc1cc(/C=C(\C#N)c2nc3ccccc3[nH]2)cc(OC)c1O,inconclusive: 16%
17,Cc1cc(=O)n2ncn(Cc3ccccc3)c2n1,inactive
18,CCOc1cc(C(=O)N(c2ccc(C)c(C)c2)C2C=CS(=O)(=O)C2)cc(OCC)c1OCC (configuration not stated),inactive
19,Cc1nnc(SCCNC(=O)c2cc(C3CC3)[nH]n2)s1,inconclusive: 18%
20,N#Cc1cc[n+](CC(=O)c2cccc([N+](=O)[O-])c2)cc1,inconclusive: 20%
21,Cc1cccc(OCC(=O)Nc2sc3c(c2C#N)CCC3)c1C,inactive
22,CCOC(=O)C1(Cc2ccccc2C)CCCN(C(=O)c2cc(-c3cccn3C)n[nH]2)C1 (configuration not stated),inconclusive: 26%
23,Cn1cc(C(=O)NC(Cn2cccn2)c2ccccc2)ccc1=O (configuration not stated),inconclusive: 16%

row,SMILES,inhibition
1,CCCCOc1ccc(C2C(C#N)=C(N)OC3=C2C(=O)CCC3)cc1OC (configuration not stated),inactive
2,OC1CCN(CCn2ccnc2-c2cccc3c2oc2ccccc23)CC1,inconclusive: 23%
3,O=C1CC(N(O)c2ccccc2)C(=O)N1Cc1ccccc1 (configuration not stated),inconclusive: 12%
4,O=C(CSc1nc2ccc([N+](=O)[O-])cc2[nH]1)Nc1ccc(Cl)cc1,inconclusive: 17%
5,COc1cccc(OCC(=O)Nc2c(C(=O)Nc3ccc(F)cc3)oc3ccccc23)c1,inconclusive: 18%
6,CCOc1cc(CN2CCc3c([nH]c4ccccc34)C2)ccc1OC,inconclusive: 22%
7,O=C(NC1CCCCC1)N1Cc2[nH]cnc2C[C@H]1c1nc(-c2ccc(OC(F)(F)F)cc2)no1,inactive
8,CC[C@@]12C[C@H]3C[C@@](O)(C1)C[C@](C(=O)NCc1cncn1CC(C)C)(C3)C2,inactive
9,COc1ccc(/C=C(/NC(=O)c2cccs2)C(=O)N2CCOCC2)cc1OC,inconclusive: 20%
10,COCCN(Cc1cnn(C)c1)C(=O)c1cn(-c2ccccc2)nn1,inconclusive: 19%
11,CC1=C[C@@H](CNCc2ccncc2)[C@H](C(C)C)C[C@H]1Cc1nnc(-c2ccccc2F)o1,inconclusive: 17%
12,O=C(/C=C/c1ccccc1)NCCc1ccccc1,inconclusive: 20%
13,COc1cc(N2CCCC2)c(OC)cc1CO,inconclusive: 14%
14,Cc1ccsc1CN(C)C(=O)c1cnn2ccccc12,inconclusive: 15%
15,O=C(C[C@@H]1O[C@H](CNC(=O)c2cccc(F)c2)[C@@H](O)[C@H]1O)NCCN1CCOCC1,inconclusive: 29%
16,COc1cccc(N2CCN(C(=O)c3cccn4c(=O)c5cc6ccccc6cc5nc34)CC2)c1,inconclusive: 15%
17,CC(C)CN(Cc1cnn(C)c1)Cc1cccc2nonc12,inactive
18,COc1cccc(C2=Nn3c(nnc3-c3ccc(Br)cc3)SC2)c1,inconclusive: 11%
19,CC(C)CN(CC(C)C)S(=O)(=O)c1ccc(C(=O)Nc2nc(-c3ccccn3)cs2)cc1,inactive
20,Cc1ccc(C(=O)Cn2c(C)csc2=Nc2ccccc2)cc1,active: 41%
21,Cc1sc2ncn(CC(=O)NC(C)C)c(=O)c2c1S(=O)(=O)N1CC(C)CC(C)C1 (configuration not stated),inactive
22,Cn1ncc(Cl)c1-c1nc(-c2nonc2N)no1,inconclusive: 19%
23,NCC(=O)Nc1ccccc1/C=C/c1ccccc1,inactive
